The source of these data is the supplement of paper PMC10849652.

Chains of the proteins cited; added tags and fusions are not shown. Lines headed by an entry give the natural chain unless they say otherwise; changes in a name come on top.
UniProt Q6ZMS4: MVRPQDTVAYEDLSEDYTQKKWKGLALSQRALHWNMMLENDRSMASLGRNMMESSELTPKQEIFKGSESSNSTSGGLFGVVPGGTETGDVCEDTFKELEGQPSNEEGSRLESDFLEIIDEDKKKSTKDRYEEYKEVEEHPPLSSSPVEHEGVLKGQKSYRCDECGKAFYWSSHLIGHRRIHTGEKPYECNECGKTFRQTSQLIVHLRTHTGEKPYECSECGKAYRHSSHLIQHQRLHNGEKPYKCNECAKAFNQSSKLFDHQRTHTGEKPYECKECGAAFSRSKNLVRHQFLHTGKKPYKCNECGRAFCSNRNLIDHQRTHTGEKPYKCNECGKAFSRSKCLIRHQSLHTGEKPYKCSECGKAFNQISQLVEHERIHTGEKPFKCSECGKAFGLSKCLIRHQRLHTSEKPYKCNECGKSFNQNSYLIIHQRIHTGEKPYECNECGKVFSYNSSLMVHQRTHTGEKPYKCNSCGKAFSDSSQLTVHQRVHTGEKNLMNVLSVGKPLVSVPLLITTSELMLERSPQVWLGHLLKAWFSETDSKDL

The other results are listed elsewhere or left out.

The target in this test is ZNF852 (UniProt Q6ZMS4). In words: log2 fold change, soluble protein after heating vs DMSO (PISA); higher = thermal stabilisation; K562 cells, 10 uM, 30 min; active = over 0.2 and 3.5 SD of the protein, either way, in both replicates (recomputed). Summed up:
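K562 cells at 2×10^6 cells/mL were exposed to 10 μM compound for 30 min, then aliquots were heated for 3 min across 48°C-58°C, pooled, and extracted in PBS containing 0.5% NP-40 at 4°C. The supernatant after 21,000xg for 90 min was taken as soluble protein and measured by TMTpro 16plex LC-MS/MS with channel sums equalised. Thermal stability is reported relative to control samples, with values from duplicates. Fold changes are given on a log2 scale.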
As for `O=C1NC(=O)C(c2cnc3ccccn23)=C1c1cn2c3c(cc(F)cc13)CN(C(=O)N1CCCCC1)CC2`, the log2 fold change was inactive: 0.125.

For the compound `CC(C)(O)CC(=O)NCCn1ccc2ncnc(Nc3ccc(Oc4cccc(C(F)(F)F)c4)c(Cl)c3)c21`, the log2 fold change was inactive: 0.216. The same measure for `CC[C@H](C)[C@H](NC(=O)[C@H]([C@@H](C)CC)N(C)C(C)=O)C(=O)N[C@H](C(=O)N[C@@H](CC(C)C)C(=O)[C@@]1(C)CO1)[C@@H](C)O` [epoxomicin]: inactive: -0.098; for `Fc1ccc(Cl)cc1-c1nc(Nc2ccncc2)c2nccnc2n1`: inactive: -0.195; for `CNC(=O)c1ccccc1Nc1nc(Nc2ccc(N3CCOCC3)cc2OC)ncc1Cl`: inactive: 0.064. Take `CCCCN(Cc1ccc(C(=O)NO)cc1)C(=O)Nc1ccccc1` [Nexturastat A]: the log2 fold change was inactive: 0.244. The same measure for `C[C@@H]1COCCN1c1cc(C2(S(C)(=O)=O)CC2)nc(-c2cccc3[nH]ccc23)n1`: inactive: -0.126. The same measure for `CC(C)c1cnn2c(NCc3ccccc3)cc(NCCCCCCN)nc12`: inactive: -0.01. The same measure for `NC(=O)c1ccc2nc(-c3ccc(Oc4ccc(Cl)cc4)cc3)[nH]c2c1`: inactive: 0.023.
